Experimental data: US20160304573A1, “FIBROMODULIN PEPTIDE” (The Regents of the University of California, priority 2010, published 2016)
Some of these results come from one statement about several compounds together.

Test system: Rat-2 fibroblasts
Assay: Z-axes series sequential images, relative height of nodules
Format: cell-based
Conditions: mono-treatment (TGF-β1 or FMOD alone)
Excerpt: But for the nodules formed with FMOD and TGF-β1 treatment (yellow arrows), the cells were stacked on top of one another to a height of about 48 μm.

In the case of TGF-β1: TGF-β isoform, SEQ ID NO:64, the “height above which no signals were observed (single layer cell morphology)” value is reported as ≤ 8 μm.

B1: FMOD: recombinant human fibromodulin whole protein (SEQ ID NO:1) produced in CHO-K1 (protein, listed as Homo sapiens)
chain: MQWTSLLLLAGLFSLSQAQYEDDPHWWFHYLRSQQSTYYDPYDPYPYETYEPYPYGVDEGPAYTYGSPSPPDPRDCPQECDCPPNFPTAMYCDNRNLKYLPFVPSRMKYVYFQNNQITSIQEGVFDNATGLLWIALHGNQITSDKVGRKVFSKLRHLERLYLDHNNLTRMPGPLPRSLRELHLDHNQISRVPNNALEGLENLTALYLQHNEIQEVGSSMRGLRSLILLDLSYNHLRKVPDGLPSALEQLYMEHNNVYTVPDSYFRGAPKLLYVRLSHNSLTNNGLASNTFNSSSLLELDLSYNQLQKIPPVNTNLENLYLQGNRINEFSISSFCTVVDVVNFSKLQVLRLDGNEIKRSAMPADAPLCLRLASLIEI
With B1 the “height above which no signals were observed (single layer cell morphology)” value was ≤ 8 μm.
